{"source": "paper PMC11565738", "binders": {"B1": {"name": "Carbonic AnHydrase 3 (CAH3) (enzyme, UniProt Q39588 1-310)", "chain": "MRSAVLQRGQARRVSCRVRADGSGVDSLPSTSASSSARPLIDRRQLLTGAAASVITFVGCPCPLCKPGEAKAAAWNYGEVAGPPTWKGVCATGKRQSPINIPLNTSAPKVDAEMGEFDFAYGSFEKCDVLNTGHGTMQVNFPAGNLAFIGNMELELLQFHFHAPSEHAMDGRRYAMEAHLVHKNKSTGNLAVLGIMLEPGGLIKNPALSTALEVAPEVPLAKKPSPKGINPVMLLPKKSKAGTRPFVHYPGSLTTPPCSEGVDWFVFMQPIKVPDSQILDFMRFVGDNKTYATNTRPLQLLNSRLVEYEL"}}, "key": {"[1]": {"target": "RBMP1-Venus-3×FLAG (Rubisco-Binding Membrane Protein 1) (C. reinhardtii)", "test": "affinity purification with mass spectrometry; detergent-based affinity purification of Venus-3×FLAG-tagged bait from C. reinhardtii lysate, performed as in Wang et al., 2023 (membranes dissolved with digitonin); control: Venus alone"}, "[2]": {"target": "RBMP2-Venus-3×FLAG (Rubisco-Binding Membrane Protein 2) (C. reinhardtii)", "test": "affinity purification with mass spectrometry; detergent-based affinity purification of Venus-3×FLAG-tagged bait from C. reinhardtii lysate, performed as in Wang et al., 2023 (membranes dissolved with digitonin); control: Venus alone"}}, "note": "No constants are given. Whether binding was seen depends on the method and setting. In cells and extracts the contact can be indirect. A yes stands for co-enrichment or nearness to the bait. Other partners may have been found. A no says only that the protein was not detected with the bait.", "data": [{"binder": "B1", "values": [{"measurement": "binding", "setting": "[1]", "value": "no binding"}, {"measurement": "binding", "setting": "[2]", "value": "no binding"}]}]}
